This is an account of results in publication PMC2909962.

Amino acid sequences for entries named in this document (tags omitted). A change or cut given only in a name is not applied to a line headed by its entry.
UniProt P06756: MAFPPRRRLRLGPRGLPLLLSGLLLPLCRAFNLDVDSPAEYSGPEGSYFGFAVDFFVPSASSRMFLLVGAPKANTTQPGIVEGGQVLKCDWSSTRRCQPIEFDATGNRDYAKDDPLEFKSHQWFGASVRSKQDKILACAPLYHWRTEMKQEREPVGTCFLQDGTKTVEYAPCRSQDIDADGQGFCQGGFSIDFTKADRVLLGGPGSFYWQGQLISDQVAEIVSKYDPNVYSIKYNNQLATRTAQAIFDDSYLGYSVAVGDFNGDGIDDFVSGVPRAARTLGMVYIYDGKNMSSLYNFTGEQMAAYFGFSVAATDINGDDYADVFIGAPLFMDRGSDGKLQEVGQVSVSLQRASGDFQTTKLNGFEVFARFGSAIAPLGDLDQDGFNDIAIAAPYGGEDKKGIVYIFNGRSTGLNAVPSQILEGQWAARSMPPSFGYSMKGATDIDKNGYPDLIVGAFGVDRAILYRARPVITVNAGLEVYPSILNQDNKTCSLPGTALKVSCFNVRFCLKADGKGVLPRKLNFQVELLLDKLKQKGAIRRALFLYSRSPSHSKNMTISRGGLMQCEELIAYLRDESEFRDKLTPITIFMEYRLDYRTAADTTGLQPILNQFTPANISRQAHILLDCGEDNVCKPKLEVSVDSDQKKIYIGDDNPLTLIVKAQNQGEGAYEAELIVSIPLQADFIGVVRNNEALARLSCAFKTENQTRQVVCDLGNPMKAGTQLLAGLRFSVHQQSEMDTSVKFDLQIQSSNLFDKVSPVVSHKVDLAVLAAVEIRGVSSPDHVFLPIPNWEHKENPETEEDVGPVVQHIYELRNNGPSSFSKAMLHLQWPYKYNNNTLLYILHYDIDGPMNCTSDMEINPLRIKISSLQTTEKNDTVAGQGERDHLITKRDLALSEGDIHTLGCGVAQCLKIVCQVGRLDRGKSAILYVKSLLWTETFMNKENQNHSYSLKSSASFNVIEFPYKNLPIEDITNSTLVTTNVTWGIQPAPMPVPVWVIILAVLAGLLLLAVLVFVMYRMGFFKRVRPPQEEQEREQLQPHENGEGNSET

This assay addresses Integrin αvβ5 (human (endogenous in MDA-MB-435 and MCF7)) (UniProt P06756). Put plainly: ELISA; cell-based, peptide blocking: MDA-MB-435 and MCF7 cells prechilled to 4°C, preincubated 1 hr with increasing concentrations of GRGDSP or control GRGESP, then Ad5-GFP (0.04 ug/uL) for 6 hrs at 4°C; bound virus detected with anti-Ad5; only the binder purified. On the technique in general: In an ELISA, binding on a coated surface is turned into a signal by an enzyme label.

No constants are given. Whether binding was seen depends on the method and setting. Some entries that bind do so weakly or less than the wild type.

B1: synthetic peptide GRGDSP (peptide)
peptide: GRGDSP
On to B1, for which the binding entry is on record as “binds”.
